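Genome-wide siRNA knockdown in TC32 Ewing sarcoma cells, comparing luciferase light from an NR0B1-promoter reporter with a CMV-promoter reporter 48 hours after transfection. Each siRNA was applied at 20 nM. A z-score of the log NR0B1-over-CMV signal, less the median of siRNAs with the same seed; more negative means a stronger specific loss of the NR0B1 reporter.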

The strongest results of the screen are mostly left out here. Sequences are the guide (antisense) strand, without overhang.

siRNA,gene,seed-corrected z-score
AUCGAUCUUGUUCAAAUCC,TBC1D9,-0.04835
UCUGUCCUGAGAAUCUUCC,LOC400940,-0.5299
UCUUGGGAAACGGAGUGCC,MOB3A,-1.001
UUUGGUAGUCUGAAGCAGC,TXNDC9,0.05054
UCUGAUUUCCGCCGGAUUG,CDX1,-0.04282
UAACGAUCUGGUUGAAUAC,RPAP3,0.1694
UCCCUGUCCAGGAUCCUUC,AQP10,0.7487
UCAGGUACUAUGAGAGGCU,FBLN2,-0.1072
AAAGUGCCCGUUCCAUUGC,CAPN8,0.5361
UUCUGAAGCAUACUUAUCA,RAB12,-0.1404
UUUCAUCCAUCUGGUAUCC,FBLN5,1.372
UCUCUUUCACGGAUGUUUC,IFT27,1.718
UCUUGGACCAGCGUGAAGU,C21orf62,1.187
UCUAGUUAGAAAUCGUUUG,SNAP91,0.1699
UCGGUUUUCAUCAAAGAUC,TRANK1,1.343
AAGGGAAACAUGGACGUGC,TMEM38B,0.4362
UCUGGAUAUAUUGAGCCGC,CFAP54,1.559
UUGGAUAUUCGCCUCGUUC,CRYBA4,1.576
UUUGCUCUCCACUAACACC,SAC3D1,-0.49
UUUCCGAAGAGCUUCUUCC,PAPD5,0.3714
UAAGUGGUUAUAUGUACUU,RAB14,-0.5624
UUUCGAAAUCGAGUUGUUU,PCDHB13,-0.4342
UCAAGGGCUGGUAAGUAGG,SPAG6,-0.5227
ACAUAGAUGACAACUGUUG,GPN1,-0.7537
AAAGGUUCUUCUGCGCAGC,C14orf79,-1.432
AAAGCAUUACUGGAUGUCC,C11orf80,0.0654
UAUUGUCUGAGUGGUAACG,CD53,0.8241
AUCCGUUCAACAAGUAGUC,PDS5B,0.8316
AGAGUUUUCACAUAGCACC,ELF2P4,0.9793
AAAGGGUUUAGGUCCUUGU,YRDC,0.6608
UUGGGAUAUAGGUAAGCAG,SLC25A44,0.9247
AUACGGAAUACCUUCUUCC,CHD5,-0.2648
UGAUUUGGAAAGACCGUUC,ARID2,0.6645
UUAACAUCUUCUGCGGUUC,MBD5,-1.309
AUUGUCGCCUUUACAACGC,MED14OS,-0.5946
UUUGUAGUCCGACAGCUUC,PRDX2,0.2954
UUAUCAAACCCUCUGACUC,GALM,0.5641
UCCUCGAUUACAAAGUUAG,RASA2,-0.103
UGCCGUAUUGAAUUCUUCC,FOXJ2,-0.2388
UUUGCGAGUACAACACUCU,RPS8P4,1.122
AUCAGGUCCAUGAACGUGU,OTUB1,0.4325
UUCCAGGUAACCCUCACCC,TMC4,-0.2581
UCCUUCGUCAUCAAGUUCC,ERV3-1,1.201
UGACGAUCACAUAAUUAGC,SLC35F2,0.09448
UCCAUAACCAUUAAUGAUG,LRRTM2,-0.4245
UAUACGUUCUCUUCAAUGG,HAVCR2,-0.3553
AAACAUAUAGCUAAGAAUC,KRTAP9-4,0.4277
UUGCUGUUGGUAGGUGAGC,CD300LB,0.7129
UAGUGUCACAGGAUUCACC,MYO19,0.4012
UGCUUAACCACUUCAGAUG,SLC25A26,-0.6288
UUAGCUUCAUCCAUUAGUC,PBK,-0.574
UUCUACUCCACGGAUAGGC,PTPRD,0.1499
AAGGAGGUUGAAUAAAUGC,TMIGD2,-0.6107
GCCAGGAAUAUCGAGUUUC,LOC727799,-0.05806
AAACUUUCAGUAAUGUUCC,SETD9,-1.255
CAUGAAGUCGCUCUGGACC,POU3F3,1.626
UUGCGGAUCAGUAAUCGCA,SAG,-0.1914
ACAGUUUACCCAAAUAGUC,UBTFL5,0.306
UCUGUAGUAUGUAUGGUUC,WDR31,0.1966
UAAAGAUACCCAACAAUGU,LOC728254,0.4185
UUCCUGUUCAAUGUAGUUU,ROPN1B,0.8443
AUAGCAACAAUCUCGAAAC,CCNL1,1.295
UUUCCAUAGAUACAAAUAC,GCNT2,0.3322

The first 4 entries again:

{"sirna": "AUCGAUCUUGUUCAAAUCC", "gene": "TBC1D9", "seed-corrected z-score": "-0.04835"}
{"sirna": "UCUGUCCUGAGAAUCUUCC", "gene": "LOC400940", "seed-corrected z-score": "-0.5299"}
{"sirna": "UCUUGGGAAACGGAGUGCC", "gene": "MOB3A", "seed-corrected z-score": "-1.001"}
{"sirna": "UUUGGUAGUCUGAAGCAGC", "gene": "TXNDC9", "seed-corrected z-score": "0.05054"}

The results are deposited in PubChem (AID1159506; NCATS, 2015).